Results as given in US9770451B2, “Composition including ATM inhibitor for reducing cellular senescence and use of the composition” (Samsung Electronics Co., Ltd., priority 2014, dated 2017).
At least one compound was matched to its structure with a doubt left.

Legend:
Type in all cases: cell-based, human
[1] = tested on: progeria senescent fibroblasts (passage 17); assay: SA-β-galactosidase staining; details: KU-60019 0.5 μM, 4 weeks
[2] = tested on: progeria senescent fibroblasts (passage 17); assay: Mitochondrial membrane potential (JC-1); details: KU-60019 0.5 μM
Protocol: The mitochondrial activity potential (i.e., mitochondrial membrane potential) was measured according to the protocol of the manufacturer of the MitoProbe™ JC-1 assay kit for flow cytometry (Life technologies: T3168). […] Consequently, mitochondrial depolarization is indicated by a decrease in the red/green fluorescence intensity ratio. The cultured cells were analyzed by flow cytometry by using an FACSCaliber (Beckton Dickinson) using excitation at a wavelength of 488 nm, and band-pass emission light filters at a wavelength of 530/30 nm and 585/42 nm. The results were analyzed using Cell Quest 3.2 software (Beckton Dickinson). FIG. 12 is a graph showing results of measuring mitochondrial activity potential (B) of the cultured cells. […]
The mitochondrial activity potential (i.e., mitochondrial membrane potential) was measured according to the protocol of the manufacturer using the MitoProbe™ JC-1 assay kit for flow cytometry (Life technologies: T3168). […] Consequently, mitochondrial depolarization is indicated by a decrease in the red/green fluorescence intensity ratio. The cultured cells were analyzed by flow cytometry by using an FACSCaliber (Beckton Dickinson) using excitation at a wavelength of 488 nm, and band-pass emission light filters at a wavelength of 530/30 nm and 585/42 nm. The results were analyzed using Cell Quest 3.2 software (Beckton Dickinson).

[3] = tested on: senescent myoblasts (passage 11); assay: ROS measurement (MitoSOX Red); details: KU-60019 0.5 μM
Protocol: (§1) ROS was measured according to the protocol of the manufacturer using a 0.2 μM MitoSOX™ Red reagent (Invitrogen, M36008). In detail, 2 μL of the reagent that was stored in a 1,000-fold concentration was added to a 2 ml medium sufficiently enough to cover the cultured cells that were attached to a coverslip. While being protected from light, the cells were further incubated at a temperature of 37° C. for 30 minutes. The cultured cells were irradiated with a wavelength of 520 nm by using a FACSCaliber (Beckton Dickinson), and then, measured with radiation emitted from a wavelength of 580 nm. The results were analyzed using Cell Quest 3.2 software (Beckton Dickinson).
as §1, with “by using an FACSCaliber (Beckton” for “by using a FACSCaliber (Beckton”

[4] = tested on: senescent fibroblasts (passage 37); assay: Lipofuscin autofluorescence (FACS); details: 0.5 μM, 3 to 4 weeks
[5] = tested on: senescent myoblasts (passage 11); assay: Mitochondrial membrane potential (JC-1); details: KU-60019 0.5 μM
[6] = tested on: senescent fibroblasts (passage 37); assay: Autophagy activity (Cyto-ID detection kit); details: 0.5 μM
[7] = tested on: progeria senescent fibroblasts (passage 17); assay: ROS measurement (MitoSOX Red); details: KU-60019 0.5 μM
Protocol: as §1, with “Dickinson). FIG. 12 is a graph showing results of measuring ROS (A) and mitochondrial membrane potential (B) of the progeria senescent fibroblasts (passage 17) that were cultured in the presence of an ATM-kinase inhibitor KU-60019 (0.5 μM).” for “Dickinson).”
ROS was measured according to the protocol of the manufacturer using a 0.2 μM MitoSOX™ Red reagent (Invitrogen, M36008). […] The cultured cells were irradiated with a wavelength of 520 nm by using a FACSCaliber (Beckton Dickinson), and then, measured with radiation emitted from a wavelength of 580 nm. The results were analyzed using Cell Quest 3.2 software (Beckton Dickinson).

[8] = tested on: senescent fibroblasts (passage 37); assay: Mitochondrial membrane potential (JC-1); details: 0.5 μM
[9] = tested on: senescent fibroblasts (passage 37); assay: SA-β-galactosidase staining; details: 0.5 μM
[10] = tested on: progeria senescent fibroblasts (passage 17); assay: Lipofuscin autofluorescence (FACS); details: KU-60019 0.5 μM, 4 weeks
Protocol: In addition, the amounts of lipofuscin in the cells cultured as described above were measured. The progeria senescent fibroblasts (passage 17) that became senescent in the presence of KU-60019 (0.5 μM) were cultured in a CO2 incubator at a temperature of 37° C. for 4 weeks. The medium was replaced by a fresh medium containing KU-60019 (0.5 μM), once every 4 days. Lipofuscin is characterized by having autofluorescence capability, and in this regard, the cultured cells were irradiated with a wavelength of 488 nm by using a FACSCaliber (Beckton Dickinson), and then, measured with radiation emitted from a wavelength of 520 nm. The results were analyzed using Cell Quest 3.2 software (Beckton Dickinson). FIG. 11 is a graph showing lipofuscin measured in the cells that were cultured in the presence of KU-60019.
In addition, the amounts of lipofuscin in the cells cultured as described above were measured. […] Lipofuscin is characterized by having autofluorescence capability, and in this regard, the cultured cells were irradiated with a wavelength of 488 nm by using a FACSCaliber (Beckton Dickinson), and then, measured with radiation emitted from a wavelength of 520 nm. The results were analyzed using Cell Quest 3.2 software (Beckton Dickinson).

`C[C@@H]1CN(CC(=O)Nc2ccc3c(c2)Cc2cccc(-c4cc(=O)cc(N5CCOCC5)o4)c2S3)C[C@H](C)O1` [KU-60019, 2-((2S,6R)-2,6-dimethylmorpholino)-N-(5-(6-morpholino-4-oxo-4H-pyran-2-yl)-9H-thioxanthen-2-yl)acetamide] was tested, and the “number of cells that express β-galactosidase vs DMSO control” value [1] was “significantly decreased”, the “mitochondrial activity potential vs control” value [2] was “significantly increased” and the “amount of ROS (superoxide) vs DMSO control” value [3] was “significantly decreased”. The “amount of lipofuscin vs control” value [4] was “significantly decreased”, the “mitochondrial activity potential vs control” value [5] was “significantly increased” and the “autophagy activity value vs control” value [6] was “significantly increased”. For the same compound, the “amount of ROS vs DMSO control” value [7] was “significantly decreased”, the “mitochondrial membrane potential vs control” value [8] was “significantly increased” and the “number of cells that express β-galactosidase vs DMSO control” value [9] was “significantly decreased”. For the same compound, the “amount of lipofuscin vs control” value [10] was “significantly decreased”.
